According to patent US5731416 (dated 1998):

Experiment: general procedure: solution-phase peptide synthesis; p-nitrophenyl active ester (DCC, HOBt)
Conditions: coupling step, isolated yield after flash chromatography

BOC-L-Ser(CH2 T)-Gly-L-Ser(CH2 T)-Gly-OMe
step yield: 83% isolated yield
